# The list shows a part of the results.
# How the values were obtained:
# Assay in all cases: glycan array binding signal (z-score within array); higher = stronger binding
# Conditions in all cases: glycan notation: IUPAC condensed, linker removed
# [1] = biological target: GlcNAc(b1-3)Gal(b1-4)GlcNAc(b1-3)Gal(b1-4)GlcNAc(b1-2)Man(a1-3)[GlcNAc(b1-3)Gal(b1-4)GlcNAc(b1-3)Gal(b1-4)GlcNAc(b1-2)Man(a1-6)]Man(b1-4)GlcNAc(b1-4)[Fuc(a1-6)]GlcNAc
# Method in brief: (§1)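 Glycan array binding is given as a within-array Z-score, which can be read as non-binding when negative. The arrays, 3228 of them, came from the Consortium for Functional Glycomics database and were retained only where the protein sequence was available. Z-scores were averaged across arrays of the same protein sequence at different concentrations or buffers and across linkers.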
# [2] = biological target: GlcNAc(b1-3)Gal(b1-4)GlcNAc(b1-3)Gal(b1-4)GlcNAc(b1-2)[GlcNAc(b1-3)Gal(b1-4)GlcNAc(b1-3)Gal(b1-4)GlcNAc(b1-6)]Man(a1-6)[GlcNAc(b1-3)Gal(b1-4)GlcNAc(b1-3)Gal(b1-4)GlcNAc(b1-2)Man(a1-3)]Man(b1-4)GlcNAc(b1-4)[Fuc(a1-6)]GlcNAc
# Method in brief: as §1
# [3] = biological target: GlcNAc(b1-3)Gal(b1-4)GlcNAc(b1-3)Gal(b1-4)GlcNAc(b1-3)Gal(b1-4)GlcNAc(b1-2)Man(a1-3)[GlcNAc(b1-3)Gal(b1-4)GlcNAc(b1-3)Gal(b1-4)GlcNAc(b1-3)Gal(b1-4)GlcNAc(b1-2)Man(a1-6)]Man(b1-4)GlcNAc(b1-4)GlcNAc
# Method in brief: as §1
# [4] = biological target: GlcNAc(b1-3)Gal(b1-4)GlcNAc(b1-3)Gal(b1-4)GlcNAc(b1-3)Gal(b1-4)GlcNAc(b1-2)Man(a1-3)[GlcNAc(b1-3)Gal(b1-4)GlcNAc(b1-3)Gal(b1-4)GlcNAc(b1-3)Gal(b1-4)GlcNAc(b1-2)Man(a1-6)]Man(b1-4)GlcNAc(b1-4)[Fuc(a1-6)]GlcNAc
# Method in brief: as §1
# [5] = biological target: GlcNAc(b1-3)Gal(b1-4)GlcNAc(b1-3)Gal(b1-4)GlcNAc(b1-3)Gal(b1-4)GlcNAc(b1-2)[GlcNAc(b1-3)Gal(b1-4)GlcNAc(b1-3)Gal(b1-4)GlcNAc(b1-3)Gal(b1-4)GlcNAc(b1-6)]Man(a1-6)[GlcNAc(b1-3)Gal(b1-4)GlcNAc(b1-3)Gal(b1-4)GlcNAc(b1-3)Gal(b1-4)GlcNAc(b1-2)Man(a1-3)]Man(b1-4)GlcNAc(b1-4)[Fuc(a1-6)]GlcNAc
# Method in brief: as §1
# [6] = biological target: GlcNAc(b1-3)Gal(b1-4)GlcNAc(b1-3)Gal(b1-4)GlcNAc(b1-3)Gal(b1-4)GlcNAc(b1-3)Gal(b1-4)GlcNAc(b1-2)Man(a1-3)[GlcNAc(b1-3)Gal(b1-4)GlcNAc(b1-3)Gal(b1-4)GlcNAc(b1-3)Gal(b1-4)GlcNAc(b1-3)Gal(b1-4)GlcNAc(b1-2)Man(a1-6)]Man(b1-4)GlcNAc(b1-4)GlcNAc
# Method in brief: as §1
# [7] = biological target: GlcNAc(b1-3)Gal(b1-4)GlcNAc(b1-3)Gal(b1-4)GlcNAc(b1-3)Gal(b1-4)GlcNAc(b1-3)Gal(b1-4)GlcNAc(b1-2)Man(a1-3)[GlcNAc(b1-3)Gal(b1-4)GlcNAc(b1-3)Gal(b1-4)GlcNAc(b1-3)Gal(b1-4)GlcNAc(b1-3)Gal(b1-4)GlcNAc(b1-2)Man(a1-6)]Man(b1-4)GlcNAc(b1-4)[Fuc(a1-6)]GlcNAc
# Method in brief: as §1
# [8] = biological target: GlcNAc(b1-3)Gal(b1-4)GlcNAc(b1-3)Gal(b1-4)GlcNAc(b1-3)Gal(b1-4)GlcNAc(b1-3)Gal(b1-4)GlcNAc(b1-2)[GlcNAc(b1-3)Gal(b1-4)GlcNAc(b1-3)Gal(b1-4)GlcNAc(b1-3)Gal(b1-4)GlcNAc(b1-3)Gal(b1-4)GlcNAc(b1-6)]Man(a1-6)[GlcNAc(b1-3)Gal(b1-4)GlcNAc(b1-3)Gal(b1-4)GlcNAc(b1-3)Gal(b1-4)GlcNAc(b1-3)Gal(b1-4)GlcNAc(b1-2)Man(a1-3)]Man(b1-4)GlcNAc(b1-4)[Fuc(a1-6)]GlcNAc
# Method in brief: as §1
# [9] = biological target: GlcNAc(b1-3)Gal(b1-4)GlcNAc(b1-3)Gal(b1-4)GlcNAc(b1-3)GalNAc
# Method in brief: as §1
# [10] = biological target: GlcNAc(b1-3)Gal(b1-4)GlcNAc(b1-3)GalNAc
# Method in brief: as §1
# [11] = biological target: GlcNAc(b1-3)Gal(b1-4)GlcNAc(b1-3)[GlcNAc(b1-3)Gal(b1-4)GlcNAc(b1-3)]GalNAc
# Method in brief: as §1
# [12] = biological target: GlcNAc(b1-3)Gal(b1-4)GlcNAc(b1-6)[Gal(b1-3)]GalNAc
# Method in brief: as §1
# [13] = biological target: GlcNAc(b1-3)Gal(b1-4)GlcNAc(b1-6)[GlcNAc(b1-3)Gal(b1-3)]GalNAc
# Method in brief: as §1
# [14] = biological target: GlcNAc(b1-3)Gal(b1-4)GlcNAc(b1-6)[GlcNAc(b1-3)]Gal(b1-4)GlcNAc
# Method in brief: as §1
# GlcNAc(b1-3)GalNAc = biological target: GlcNAc(b1-3)GalNAc
# Method in brief: as §1
# GlcNAc(b1-3)Man = biological target: GlcNAc(b1-3)Man
# Method in brief: as §1
# [15] = biological target: GlcNAc(b1-3)[GlcNAc(b1-4)][GlcNAc(b1-6)]GlcNAc
# Method in brief: as §1
# [16] = biological target: GlcNAc(b1-3)[GlcNAc(b1-6)]Gal(b1-4)GlcNAc
# Method in brief: as §1
# [17] = biological target: GlcNAc(b1-3)[GlcNAc(b1-6)]GalNAc
# Method in brief: as §1
# [18] = biological target: GlcNAc(b1-4)Gal(b1-4)GlcNAc
# Method in brief: as §1
# GlcNAc(b1-4)GlcNAc = biological target: GlcNAc(b1-4)GlcNAc
# Method in brief: as §1
# [19] = biological target: GlcNAc(b1-4)GlcNAc(b1-4)GlcNAc
# Method in brief: as §1
# [20] = biological target: GlcNAc(b1-4)GlcNAc(b1-4)GlcNAc(b1-4)GlcNAc(b1-4)GlcNAc
# Method in brief: as §1
binder,measurement,setting,value
"AntigenI/IIA3VP1 (Streptococcus mutans), C9E3B4 (protein) AANEADYQAKLTAYQTELARVQKANADAKAAYEAAVAANNAANAALTAENTAIKKRNADAKADYEAKLAKYQADLAKYQKDLADYPVKLKAYEDEQASIKAALAELEKHKNEDGNLTEPSAQNLVYDLEPNANLSLTTDGKFLKASAVDDAFSKSTSKAKYDQKILQLDDLDITNLEQSNDVASSMELYGNFGDKAGWSTTVSNNSQVKWGSVLLERGQSATATYTNLQNSYYNGKKISKIVYKYTVDPKSKFQGQKVWLGIFTDPTLGVFASAYTGQVEKNTSIFIKNEFTFYDEDGKPINFDNALLSVASLNREHNSIEMAKDYSGKFVKISGSSIGEKNGMIYATDTLNFKQGEGGSRWTMYKNSQAGSGWDSSDAPNSWYGAGAIKMSGPNNYVTVGATSATNVMPVSDMPVVPGKDNTDGKKPNIWYSLNGKIRAVNVPKVTKEKPTPPVKPTAPTKPTYETEKPLKPAPVAPNYEKEPTPPTRLEHHHHHH",glycan array binding signal (z-score),[1],0.478
same,glycan array binding signal (z-score),[2],-0.456
same,glycan array binding signal (z-score),[3],-0.017
same,glycan array binding signal (z-score),[4],0.51
same,glycan array binding signal (z-score),[5],1.96
same,glycan array binding signal (z-score),[6],1.13
same,glycan array binding signal (z-score),[7],3.23
same,glycan array binding signal (z-score),[8],0.602
same,glycan array binding signal (z-score),[9],-1
same,glycan array binding signal (z-score),[10],-0.624
same,glycan array binding signal (z-score),[11],-0.582
same,glycan array binding signal (z-score),[12],-0.907
same,glycan array binding signal (z-score),[13],0.271
same,glycan array binding signal (z-score),[14],-0.012
same,glycan array binding signal (z-score),GlcNAc(b1-3)GalNAc,-0.71
same,glycan array binding signal (z-score),GlcNAc(b1-3)Man,-1.03
same,glycan array binding signal (z-score),[15],-0.954
same,glycan array binding signal (z-score),[16],-1.18
same,glycan array binding signal (z-score),[17],-0.557
same,glycan array binding signal (z-score),[18],-0.562
same,glycan array binding signal (z-score),GlcNAc(b1-4)GlcNAc,0.035
same,glycan array binding signal (z-score),[19],0.168
same,glycan array binding signal (z-score),[20],0.052

# As a short view, part of the list above.
binder,measurement,setting,value
"AntigenI/IIA3VP1 (Streptococcus mutans), C9E3B4 (protein) AANEADYQAKLTAYQTELARVQKANADAKAAYEAAVAANNAANAALTAENTAIKKRNADAKADYEAKLAKYQADLAKYQKDLADYPVKLKAYEDEQASIKAALAELEKHKNEDGNLTEPSAQNLVYDLEPNANLSLTTDGKFLKASAVDDAFSKSTSKAKYDQKILQLDDLDITNLEQSNDVASSMELYGNFGDKAGWSTTVSNNSQVKWGSVLLERGQSATATYTNLQNSYYNGKKISKIVYKYTVDPKSKFQGQKVWLGIFTDPTLGVFASAYTGQVEKNTSIFIKNEFTFYDEDGKPINFDNALLSVASLNREHNSIEMAKDYSGKFVKISGSSIGEKNGMIYATDTLNFKQGEGGSRWTMYKNSQAGSGWDSSDAPNSWYGAGAIKMSGPNNYVTVGATSATNVMPVSDMPVVPGKDNTDGKKPNIWYSLNGKIRAVNVPKVTKEKPTPPVKPTAPTKPTYETEKPLKPAPVAPNYEKEPTPPTRLEHHHHHH",glycan array binding signal (z-score),[1],0.478
same,glycan array binding signal (z-score),[2],-0.456
